# Results from the supplement of paper PMC8728848.
# The other results are listed elsewhere or left out.
# B1: Mincle (Bos taurus) (protein)
# chain: MNSSTSPASQTERRCFSFQLFSWAIAGTSILLLSACFITRCVVTYSIFQLCDEKKFQPPGDSMELSCYNDGSGSVKNCCPLKWFHFQSSCYLFSPDTMSWRASLKNCSSMGAHLVVINTQEEQEFLYYTKPRKKEFYIGLTDQVTEGQWQWVDGTPFTKSLSFWDAGEPNNLVIVEDCATIRDSSNPRQNWNDVPCFFNMFRVCEMPERKI
# Experiments:
# Assay in all cases: glycan array binding signal (z-score within array); higher = stronger binding
# Details in all cases: glycan notation: IUPAC condensed, linker removed
# [1] = biological target: Neu5Ac(a2-6)Gal(b1-4)GlcNAc(b1-6)[Gal(b1-3)]GalNAc
# How it was run: (§1)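 Negative Z-scores can be read as non-binding. The Z-score is calculated within each array and then averaged across arrays of one protein sequence at different concentrations or buffers and across linkers. Arrays, 3228 in all, were curated from the Consortium for Functional Glycomics database and kept only where the protein sequence was available.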
# [2] = biological target: Neu5Ac(a2-6)Gal(b1-4)GlcNAc6S
# How it was run: as §1
# Neu5Ac(a2-6)GalNAc = biological target: Neu5Ac(a2-6)GalNAc
# How it was run: as §1
# [3] = biological target: Neu5Ac(a2-6)GalNAc(b1-4)GlcNAc
# How it was run: as §1
# [4] = biological target: Neu5Ac(a2-6)GalNAc(b1-4)GlcNAc6S
# How it was run: as §1
# [5] = biological target: Neu5Ac(a2-6)GlcNAc(b1-4)GlcNAc
# How it was run: as §1
# [6] = biological target: Neu5Ac(a2-6)GlcNAc(b1-4)GlcNAc(b1-4)GlcNAc
# How it was run: as §1
# Neu5Ac(a2-8)Neu5Ac = biological target: Neu5Ac(a2-8)Neu5Ac
# How it was run: as §1
# [7] = biological target: Neu5Ac(a2-8)Neu5Ac(a2-3)Gal(b1-3)GalNAc(b1-4)[Neu5Ac(a2-3)]Gal(b1-4)Glc
# How it was run: as §1
# [8] = biological target: Neu5Ac(a2-8)Neu5Ac(a2-3)Gal(b1-3)GalNAc(b1-4)[Neu5Ac(a2-8)Neu5Ac(a2-3)]Gal(b1-4)Glc
# How it was run: as §1
# [9] = biological target: Neu5Ac(a2-8)Neu5Ac(a2-3)Gal(b1-4)Glc
# How it was run: as §1
# [10] = biological target: Neu5Ac(a2-8)Neu5Ac(a2-3)Gal(b1-4)GlcNAc
# How it was run: as §1
# [11] = biological target: Neu5Ac(a2-8)Neu5Ac(a2-3)[Gal(b1-3)GalNAc(b1-4)]Gal(b1-4)Glc
# How it was run: as §1
# [12] = biological target: Neu5Ac(a2-8)Neu5Ac(a2-3)[GalNAc(b1-4)]Gal(b1-4)Glc
# How it was run: as §1
# [13] = biological target: Neu5Ac(a2-8)Neu5Ac(a2-8)Neu5Ac
# How it was run: as §1
# [14] = biological target: Neu5Ac(a2-8)Neu5Ac(a2-8)Neu5Ac(a2-3)Gal(b1-4)Glc
# How it was run: as §1
# [15] = biological target: Neu5Ac(a2-8)Neu5Ac(a2-8)Neu5Ac(a2-3)[Gal(b1-3)GalNAc(b1-4)]Gal(b1-4)Glc
# How it was run: as §1
# [16] = biological target: Neu5Ac(a2-8)Neu5Ac(a2-8)Neu5Ac(a2-3)[GalNAc(b1-4)]Gal(b1-4)Glc
# How it was run: as §1
# [17] = biological target: Neu5Ac(a2-8)Neu5Ac(a2-8)Neu5Ac(a2-8)Neu5Ac(a2-3)[GalNAc(b1-4)]Gal(b1-4)Glc
# How it was run: as §1
# [18] = biological target: Neu5Ac(a2-8)Neu5Gc(a2-3)Gal(b1-4)GlcNAc
# How it was run: as §1
# [19] = biological target: Neu5Ac(b2-6)Gal(b1-4)GlcNAc
# How it was run: as §1
# Neu5Ac(b2-6)GalNAc = biological target: Neu5Ac(b2-6)GalNAc
# How it was run: as §1
# [20] = biological target: Neu5Ac9Ac(a2-3)Gal(b1-3)GlcNAc
# How it was run: as §1
# [21] = biological target: Neu5Ac9Ac(a2-3)Gal(b1-4)GlcNAc
# How it was run: as §1
# [22] = biological target: Neu5Ac9Ac(a2-6)Gal(b1-4)GlcNAc
# How it was run: as §1
# [23] = biological target: Neu5Gc(a2-3)Gal(b1-3)GlcNAc
# How it was run: as §1
# [24] = biological target: Neu5Gc(a2-3)Gal(b1-3)[Fuc(a1-4)]GlcNAc
# How it was run: as §1
# Neu5Gc(a2-3)Gal(b1-4)Glc = biological target: Neu5Gc(a2-3)Gal(b1-4)Glc
# How it was run: as §1
# [25] = biological target: Neu5Gc(a2-3)Gal(b1-4)GlcNAc
# How it was run: as §1
# [26] = biological target: Neu5Gc(a2-3)Gal(b1-4)GlcNAc(b1-3)Gal(b1-4)GlcNAc(b1-2)Man(a1-3)[Neu5Gc(a2-3)Gal(b1-4)GlcNAc(b1-3)Gal(b1-4)GlcNAc(b1-2)Man(a1-6)]Man(b1-4)GlcNAc(b1-4)GlcNAc
# How it was run: as §1
# [27] = biological target: Neu5Gc(a2-3)Gal(b1-4)[Fuc(a1-3)]GlcNAc
# How it was run: as §1
# [28] = biological target: Neu5Gc(a2-6)Gal(b1-4)GlcNAc
# How it was run: as §1
# Neu5Gc(a2-6)GalNAc = biological target: Neu5Gc(a2-6)GalNAc
# How it was run: as §1
# [29] = biological target: Neu5Gc(a2-8)Neu5Ac(a2-3)Gal(b1-4)GlcNAc
# How it was run: as §1
# [30] = biological target: Neu5Gc(a2-8)Neu5Gc(a2-3)Gal(b1-4)GlcNAc
# How it was run: as §1
# [31] = biological target: Neu5Gc(a2-8)Neu5Gc(a2-3)Gal(b1-4)GlcNAc(b1-3)Gal(b1-4)GlcNAc
# How it was run: as §1
# [32] = biological target: Neu5Gc(a2-8)Neu5Gc(a2-6)Gal(b1-4)GlcNAc
# How it was run: as §1
# [33] = biological target: Neu5Gc(b2-6)Gal(b1-4)GlcNAc
# How it was run: as §1
binder,measurement,setting,value
B1,glycan array binding signal (z-score),[1],-0.016
same,glycan array binding signal (z-score),[2],-0.218
same,glycan array binding signal (z-score),Neu5Ac(a2-6)GalNAc,-0.507
same,glycan array binding signal (z-score),[3],-0.744
same,glycan array binding signal (z-score),[4],-0.538
same,glycan array binding signal (z-score),[5],0.082
same,glycan array binding signal (z-score),[6],-0.07
same,glycan array binding signal (z-score),Neu5Ac(a2-8)Neu5Ac,-0.837
same,glycan array binding signal (z-score),[7],-0.132
same,glycan array binding signal (z-score),[8],-0.528
same,glycan array binding signal (z-score),[9],-1.12
same,glycan array binding signal (z-score),[10],-1.14
same,glycan array binding signal (z-score),[11],-0.197
same,glycan array binding signal (z-score),[12],-0.123
same,glycan array binding signal (z-score),[13],0.16
same,glycan array binding signal (z-score),[14],0.334
same,glycan array binding signal (z-score),[15],1.24
same,glycan array binding signal (z-score),[16],0.821
same,glycan array binding signal (z-score),[17],-0.204
same,glycan array binding signal (z-score),[18],-1.18
same,glycan array binding signal (z-score),[19],-0.27
same,glycan array binding signal (z-score),Neu5Ac(b2-6)GalNAc,-0.564
same,glycan array binding signal (z-score),[20],-1.51
same,glycan array binding signal (z-score),[21],1.02
same,glycan array binding signal (z-score),[22],-0.265
same,glycan array binding signal (z-score),[23],-0.503
same,glycan array binding signal (z-score),[24],-0.349
same,glycan array binding signal (z-score),Neu5Gc(a2-3)Gal(b1-4)Glc,-0.805
same,glycan array binding signal (z-score),[25],-0.701
same,glycan array binding signal (z-score),[26],0.059
same,glycan array binding signal (z-score),[27],-0.793
same,glycan array binding signal (z-score),[28],-0.127
same,glycan array binding signal (z-score),Neu5Gc(a2-6)GalNAc,-0.683
same,glycan array binding signal (z-score),[29],-0.304
same,glycan array binding signal (z-score),[30],-0.578
same,glycan array binding signal (z-score),[31],-0.551
same,glycan array binding signal (z-score),[32],1.25
same,glycan array binding signal (z-score),[33],-0.507

# Fetched one by one from the entries so far, 3 records:
binder,measurement,setting,value
B1,glycan array binding signal (z-score),[33],-0.507
same,glycan array binding signal (z-score),[29],-0.304
same,glycan array binding signal (z-score),[7],-0.132
